# Library screen at single concentrations

Protein sequences, listed by entry. Tags and fused reporters are not part of them. Residues count along the entry.
UniProt A4I591, 1-473: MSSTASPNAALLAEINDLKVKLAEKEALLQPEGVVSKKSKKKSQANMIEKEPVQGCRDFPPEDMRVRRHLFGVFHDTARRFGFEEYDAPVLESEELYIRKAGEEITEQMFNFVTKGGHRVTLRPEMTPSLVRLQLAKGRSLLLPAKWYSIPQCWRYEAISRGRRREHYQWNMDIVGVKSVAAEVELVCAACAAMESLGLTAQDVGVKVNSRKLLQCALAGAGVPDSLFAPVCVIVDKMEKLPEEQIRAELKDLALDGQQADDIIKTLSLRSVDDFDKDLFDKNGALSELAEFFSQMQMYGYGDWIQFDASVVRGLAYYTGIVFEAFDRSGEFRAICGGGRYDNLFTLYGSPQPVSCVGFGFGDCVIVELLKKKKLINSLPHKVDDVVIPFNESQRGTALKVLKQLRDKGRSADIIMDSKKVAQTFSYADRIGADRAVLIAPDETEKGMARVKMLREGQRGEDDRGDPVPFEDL
UniProt Q4DA54, 1-478: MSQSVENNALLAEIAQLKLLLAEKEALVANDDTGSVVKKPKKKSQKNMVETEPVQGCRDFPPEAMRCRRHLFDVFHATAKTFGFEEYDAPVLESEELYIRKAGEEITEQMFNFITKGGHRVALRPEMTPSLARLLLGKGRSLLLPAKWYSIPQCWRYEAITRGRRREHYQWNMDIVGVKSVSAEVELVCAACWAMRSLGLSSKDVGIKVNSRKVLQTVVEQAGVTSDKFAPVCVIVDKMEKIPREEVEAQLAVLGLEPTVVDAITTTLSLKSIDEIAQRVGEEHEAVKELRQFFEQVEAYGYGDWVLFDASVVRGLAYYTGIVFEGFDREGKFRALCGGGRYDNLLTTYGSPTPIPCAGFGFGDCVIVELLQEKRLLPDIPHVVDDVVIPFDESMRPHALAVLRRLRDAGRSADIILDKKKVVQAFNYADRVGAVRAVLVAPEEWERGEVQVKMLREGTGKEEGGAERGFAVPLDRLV
UniProt P9WPC5, whole entry: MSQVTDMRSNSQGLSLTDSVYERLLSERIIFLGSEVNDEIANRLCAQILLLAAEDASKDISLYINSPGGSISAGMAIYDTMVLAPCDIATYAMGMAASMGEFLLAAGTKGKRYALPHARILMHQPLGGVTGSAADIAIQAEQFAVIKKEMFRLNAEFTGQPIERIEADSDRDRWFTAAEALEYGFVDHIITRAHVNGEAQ
UniProt P9WPC3, whole entry partner: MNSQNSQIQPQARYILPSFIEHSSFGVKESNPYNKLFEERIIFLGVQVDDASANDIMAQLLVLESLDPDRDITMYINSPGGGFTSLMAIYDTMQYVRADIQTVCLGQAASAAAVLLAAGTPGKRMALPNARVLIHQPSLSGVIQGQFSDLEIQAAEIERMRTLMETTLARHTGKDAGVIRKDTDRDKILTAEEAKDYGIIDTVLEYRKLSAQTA

A: 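Enzyme assay of histidyl-tRNA synthetase; the read-out is not stated. Target: Histidine-tRNA ligase, Leishmania infantum (UniProt A4I591). Compounds at 30 µM. Higher reads as stronger inhibition (inferred: compounds with an IC50 in retests scored well above the rest). The assay is labelled LdHisRS but filed under L. infantum. Of about 69,000 compounds tested this way, about 410 (0.6%) reached 50% or more in at least one test.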
B: 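Enzyme assay of histidyl-tRNA synthetase; the read-out is not stated. Target: Histidine-tRNA ligase, Trypanosoma cruzi CL Brener (UniProt Q4DA54). Concentration: 30 µM. Higher reads as stronger inhibition (inferred: compounds with an IC50 in retests scored well above the rest). Of about 69,000 compounds tested this way, about 31 (0.045%) reached 50% or more in at least one test.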
C: 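Protease assay of ClpP1P2, read by the AMC dye that it sets free. Target: ClpP1P2, Mycobacterium tuberculosis (UniProt P9WPC5 and UniProt P9WPC3). Concentration: 50 µM. Direction is inferred from only a few compounds that gave an IC50; most scored high, so higher reads as stronger inhibition. Most other retested compounds had strongly negative values. Of about 69,000 compounds tested this way, about 10 (0.015%) reached 50% or more in at least one test.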

Values are the deposited “Percent Effect”, in %. How 0% and 100% were set is not recorded. Most values in the screen are low, and negative values occur. The compounds are a random part of those screened.

CN1CCN(S(=O)(=O)N2CCCCC2CCc2ccc(O)cc2)CC1 (stereo not drawn) gave A: 26.03%; B: 4.95%; C: 6.348%.
Cc1csc(C2CCCCN2C(=O)c2cc(C3CC3)[nH]n2)n1 (stereo not drawn) gave A: 5.769%; B: 1.143%; C: -2.679%.
CC(C)N1CCCC1c1cc(CO)[nH]n1 (stereo not drawn) gave A: 18.84%; B: 6.818%; C: -1.242%.
COc1cc(CO)ccc1OCc1nc(C2CC2)no1 gave A: -1.667%; B: 4.545%; C: 5.605%.
CCCNC(=O)CSCc1ccc(S(=O)(=O)N(C)C)o1 gave A: 0.8547%; B: -2.222%; C: 1.195%.
NC(=O)[C@@H]1Cc2ccccc2CN1CCC(=O)N1CCOCC1 gave A: 9.804%; B: 11.11%; C: 2.148%.
CCNc1cc2c(nn1)CCN(C(=O)c1ccc3cc[nH]c3c1)C2 gave A: 13.6%; B: 7.224%; C: 2.064%.
CNC(=O)C1CCCN(c2nc(-c3ccco3)nc3c2CCNCC3)C1 (stereo not drawn) gave A: 8.219%; B: 4.865%; C: 0.1946%.
Cn1ccnc1CN1C[C@@H](CN2CCC(CO)CC2)[C@@H](CO)C1 gave A: 23.08%; B: 1.667%; C: -5.402%.
O=C(NC1CCCN(c2ccccc2Cl)C1)c1c[nH]nn1 (stereo not drawn) gave A: 20.41%; B: 7%; C: -6.995%.
Cc1cccc(CN2CCC23CCCNC3)n1 (stereo not drawn) gave A: 9.615%; B: 5.825%; C: 3.622%.
CN1CCN(Cc2cnc3n2CCN(CCc2ccccc2)C3)CC1 gave A: 10.96%; B: 6%; C: 18.62%.
c1ccc(-c2cnn3cc(CN4CCC5(CCO5)CC4)cnc23)cc1 gave A: 7.018%; B: 4.372%; C: -14.94%.
CCn1cc(S(=O)(=O)NC(=O)CCc2c[nH]c3ccccc23)cn1 gave A: 28.57%; B: 3.896%; C: -6.247%.
CC(C)Nc1nc(N2CCCC2)nc2c1CN(S(C)(=O)=O)CC2 gave A: 8.333%; B: 4.762%; C: -4.069%.
Cc1cc(C2CCC2)nc(N2CC(n3cccn3)C2)n1 gave A: -40.3%; B: -2.128%; C: -11.87%.
Cc1nn(C)c(C)c1CCC(=O)N1CCc2sccc2C1 gave A: -11.11%; B: 0%; C: -10.71%.
CCN(C)C1COC2(CCN(C(=O)c3ccc(Cl)cc3)CC2)C1 (stereo not drawn) gave A: 7.767%; B: 2.913%; C: -6.115%.
Cc1oc(C)c(C(=O)NCc2cccc(C(N)=O)c2)c1C gave A: 17.09%; B: 5.413%; C: -15.6%.
Cn1ncc2c(N3CCC3)nc(-c3ccncc3)nc21 gave A: 18.18%; B: 0%; C: 1.263%.
Cc1ccc(C(=O)N2C[C@@H](OCc3cccnc3)[C@H]3OCCC[C@H]32)o1 gave A: 9.735%; B: 2.4%; C: 1.668%.
O=C(Cn1c(=O)oc2ccccc21)NCC(O)c1ccc2c(c1)CCO2 (stereo not drawn) gave A: 6.78%; B: 4.39%; C: -12.63%.
Cc1nn(C)c(Cl)c1CNCc1cccnc1N1CCOCC1 gave A: 22.86%; B: 1.087%; C: -2.923%.
CC(Cn1cccn1)NCc1csc(-c2ccc3c(c2)OCO3)n1 (stereo not drawn) gave A: 20.51%; B: 3.933%; C: 3.676%.
Cc1ccc(C(=O)N2C[C@@H]3CCN(C(C)C)C[C@@H]3C2)cn1 gave A: 19.42%; B: 11.65%; C: -3.351%.
Cc1cc(C)n(CC2CCCN2Cc2ncc(C(C)(C)C)o2)n1 (stereo not drawn) gave A: 5.217%; B: 1.149%; C: -14.24%.
O=C(O)c1ccccc1-c1ccc(Cn2c(=O)cc[nH]c2=O)cc1 gave A: 9.929%; B: 3.101%; C: 6.763%.
CC(=O)c1ccc(N2CCN(C(=O)NC(C)c3ccc(C)o3)CC2)cc1 (stereo not drawn) gave A: 25%; B: 5.419%; C: -5.094%.
c1c(CN2CCCC2)nc2n1CCNC2 gave A: -4.202%; B: 4.902%; C: 3.349%.
O=S(=O)(c1cccs1)N1CCN2C[C@H](OCC3CC3)C[C@H]2C1 gave A: 10.53%; B: 1.149%; C: 11.7%.

Once more, the final 2:

Compound,A,B,C
c1c(CN2CCCC2)nc2n1CCNC2,-4.202,4.902,3.349
O=S(=O)(c1cccs1)N1CCN2C[C@H](OCC3CC3)C[C@H]2C1,10.53,1.149,11.7

The values are deposited in ChEMBL (CHEMBL3988442, “University of Dundee, Small-Polar-MMV Screening Library” (2021)).